These results are taken from article PMC10535824 (Pharmaceuticals, 2023).

Square brackets hold non-standard residues; d marks the D form. 1Nal = N[C@@H](Cc1cccc2ccccc12)C(=O)O; 2Nal = N[C@@H](Cc1ccc2ccccc2c1)C(=O)O; d1Nal = N[C@H](Cc1cccc2ccccc12)C(=O)O; d2Nal = N[C@H](Cc1ccc2ccccc2c1)C(=O)O; Bta = N[C@@H](Cc1csc2ccccc12)C(=O)O; dBta = N[C@H](Cc1csc2ccccc12)C(=O)O

This data set is described as follows: peptide synthesis. The settings on record: cyclisation step, on linear precursor.
“cyclo(F[dP]F[d2Nal]) (SMILES O=C1N[C@H](Cc2ccc3ccccc3c2)C(=O)N[C@@H](Cc2ccccc2)C(=O)N2CCC[C@@H]2C(=O)N[C@H]1Cc1ccccc1)” came in with a cyclisation yield of 67%. On to “cyclo(F[dP]F[Bta]) (SMILES O=C1N[C@@H](Cc2ccccc2)C(=O)N2CCC[C@@H]2C(=O)N[C@@H](Cc2ccccc2)C(=O)N[C@H]1Cc1csc2ccccc12)”, for which the cyclisation yield is 49%. The result for “cyclo(F[dP]F[2Nal]) (SMILES O=C1N[C@@H](Cc2ccccc2)C(=O)N2CCC[C@@H]2C(=O)N[C@@H](Cc2ccccc2)C(=O)N[C@H]1Cc1ccc2ccccc2c1)” reads 82%; that for “cyclo(F[dP]F[1Nal]) (SMILES O=C1N[C@@H](Cc2ccccc2)C(=O)N2CCC[C@@H]2C(=O)N[C@@H](Cc2ccccc2)C(=O)N[C@H]1Cc1cccc2ccccc12)”, 50%; that for “cyclo(F[dP]F[d1Nal]) (SMILES O=C1N[C@H](Cc2cccc3ccccc23)C(=O)N[C@@H](Cc2ccccc2)C(=O)N2CCC[C@@H]2C(=O)N[C@H]1Cc1ccccc1)”, 57%.

Turning to “cyclo(F[dP]F[dBta]) (SMILES O=C1N[C@H](Cc2csc3ccccc23)C(=O)N[C@@H](Cc2ccccc2)C(=O)N2CCC[C@@H]2C(=O)N[C@H]1Cc1ccccc1)”, the cyclisation yield was determined as 61%.
